Measurements published in PubChem BioAssay AID248 (DTP/NCI, 2004).
The list does not hold the whole screen: it is rich in T/C values a quarter to a half above the control, in often repeated tests (any T/C) and in doses without a T/C. Other doses and runs of a compound stand elsewhere. T/C gives the treated animals as a percentage of the vehicle group. Some doses have a count of surviving animals in place of a T/C: the source files T/C as zero there, which appears to mark a toxic dose or a test without result, not a measured value. Some doses without a T/C left all or most animals alive at the check, yet need not have been tolerated: the source hardly ever lists a survival T/C far under the control, and the zero likely stands for such cases as well. Survivors were counted at the toxicity check, usually on the fifth day, unless a day is given; later deaths do not show. Schedules are NCI's codes, taken here to give the interval after Q, in days (D) or hours (H), and the number of doses after X. Some entries were tested several times; their values stand side by side, smallest first. Where survival is the endpoint, this PubChem deposit counts one and a half times the control or more as active, and values a quarter to a half above the control carry no call in these data; other NCI protocols may use other cut-offs. Some T/C values are followed by the survivors on the day toxicity was checked, most often the fifth; where none is given, no animal had died by that day.

System: L1210 leukemia ip in BDF1 mice, survival T/C
Assay: NCI In Vivo Anticancer Drug Screen. Data for tumor model L1210 Leukemia (intraperitoneal) in B6D2F1 (BDF1) mice
Settings: T/C endpoint: mean survival time, higher T/C = longer survival
[1] = dose: 400.0 mg/kg/injection, schedule: Q01DX001 (ip), vehicle: carboxymethylcellulose (CMC)
[2] = dose: 200.0 mg/kg/injection, schedule: Q01DX001 (ip), vehicle: saline

For `O=NN(CCCl)C(=O)CCCCC(=O)N(CCCl)N=O`, the T/C (dose: 6.25 mg/kg/injection, schedule: Q01DX001 (ip), vehicle: Klucel (hydroxypropylcellulose) (HPC), evaluated on day 5) was 128 % of control, the T/C (dose: 6.25 mg/kg/injection, schedule: Q01DX001 (ip), vehicle: Klucel (hydroxypropylcellulose) (HPC), evaluated on day 45) was 128 % of control and the T/C (dose: 12.5 mg/kg/injection, schedule: Q01DX001 (ip), vehicle: Klucel (hydroxypropylcellulose) (HPC), evaluated on day 5) was 132 % of control. The T/C (dose: 12.5 mg/kg/injection, schedule: Q01DX001 (ip), vehicle: Klucel (hydroxypropylcellulose) (HPC), evaluated on day 45) was 132 % of control, the T/C (dose: 12.5 mg/kg/injection, schedule: Q01DX001 (ip), vehicle: carboxymethylcellulose (CMC)) was 131 % of control and the T/C (dose: 25.0 mg/kg/injection, schedule: Q01DX001 (ip), vehicle: Klucel (hydroxypropylcellulose) (HPC), evaluated on day 5) was 133 % of control. For the same compound, the T/C (dose: 25.0 mg/kg/injection, schedule: Q01DX001 (ip), vehicle: Klucel (hydroxypropylcellulose) (HPC), evaluated on day 45) was 133 % of control, the T/C (dose: 50.0 mg/kg/injection, schedule: Q01DX001 (ip), vehicle: Klucel (hydroxypropylcellulose) (HPC), evaluated on day 5) was 148 [8 of 9 alive] and 163 % of control and the T/C (dose: 50.0 mg/kg/injection, schedule: Q01DX001 (ip), vehicle: Klucel (hydroxypropylcellulose) (HPC), evaluated on day 45) was 131 [8 of 9 alive] and 163 % of control. The survivor count (dose: 100.0 mg/kg/injection, schedule: Q01DX001 (ip), vehicle: Klucel (hydroxypropylcellulose) (HPC)) was 9 of 10, the survivor count (dose: 200.0 mg/kg/injection, schedule: Q01DX001 (ip), vehicle: Klucel (hydroxypropylcellulose) (HPC)) was 6 of 10 and the survivor count (dose: 300.0 mg/kg/injection, schedule: Q01DX001 (ip), vehicle: carboxymethylcellulose (CMC)) was 5 of 6. The survivor count (dose: 400.0 mg/kg/injection, schedule: Q01DX001 (ip), vehicle: Klucel (hydroxypropylcellulose) (HPC)) was 0 of 10 and 10 of 10, the survivor count [1] was 1 of 6 and the survivor count (dose: 500.0 mg/kg/injection, schedule: Q01DX001 (ip), vehicle: carboxymethylcellulose (CMC)) was 0 of 6. The survivor count (dose: 600.0 mg/kg/injection, schedule: Q01DX001 (ip), vehicle: carboxymethylcellulose (CMC)) was 0 of 6, the survivor count (dose: 800.0 mg/kg/injection, schedule: Q01DX001 (ip), vehicle: carboxymethylcellulose (CMC)) was 0 of 6 and the survivor count (dose: 1000.0 mg/kg/injection, schedule: Q01DX001 (ip), vehicle: carboxymethylcellulose (CMC)) was 0 of 6.
For `CCCCCCCCCCCC[n+]1ccc(C(N)=O)cc1`, the survivor count (dose: 75.0 mg/kg/injection, schedule: Q01DX009 (ip), vehicle: saline) was 0 of 6, the survivor count (dose: 100.0 mg/kg/injection, schedule: Q01DX001 (ip), vehicle: saline) was 0 of 6 and the survivor count (dose: 115.0 mg/kg/injection, schedule: Q01DX009 (ip), vehicle: saline) was 0 of 6. For the same compound, the survivor count [2] was 0 of 6 and the survivor count (dose: 400.0 mg/kg/injection, schedule: Q01DX001 (ip), vehicle: saline) was 0 of 6.
With `CC(=O)Oc1ccc(C[n+]2ccccc2)cc1` the survivor count (dose: 50.0 mg/kg/injection, schedule: Q01DX009 (ip), vehicle: saline) was 5 of 6, the survivor count (dose: 100.0 mg/kg/injection, schedule: Q04DX003 (ip), vehicle: saline) was 0 of 6 and 1 of 6 and the survivor count (dose: 200.0 mg/kg/injection, schedule: Q04DX003 (ip), vehicle: saline) was 0 of 6. The survivor count (dose: 400.0 mg/kg/injection, schedule: Q04DX003 (ip), vehicle: saline) was 0 of 6.
`S=C(NCc1ccccc1)C(=S)NCc1ccccc1` was tested, and the survivor count (dose: 400.0 mg/kg/injection, schedule: Q04DX003 (ip), vehicle: Klucel (hydroxypropylcellulose) (HPC)) was 0 of 3.
With `COc1ccc(/C=C(/C)[N+](=O)[O-])cc1OC` the survivor count [2] was 4 of 4.
For `CC1=C2[C@H]3OC(=O)[C@H](C)[C@@H]3CC[C@@]2(C)C=CC1=O`, the survivor count (dose: 400.0 mg/kg/injection, schedule: Q01DX001 (ip), vehicle: other) was 2 of 6.
For `c1ccc(CC23CCCCC2N3)cc1` (stereo not given), the survivor count (dose: 100.0 mg/kg/injection, schedule: Q01DX009 (ip), vehicle: saline with Tween-80) was 3 of 6 and the survivor count (dose: 200.0 mg/kg/injection, schedule: Q01DX009 (ip), vehicle: saline with Tween-80) was 1 of 6.
In the case of `CC[Si](CC)(c1ccccc1)N1CC1`, the survivor count (dose: 100.0 mg/kg/injection, schedule: Q01DX001 (ip), vehicle: carboxymethylcellulose (CMC)) is reported as 2 of 4 and 3 of 4, the survivor count (dose: 200.0 mg/kg/injection, schedule: Q01DX001 (ip), vehicle: carboxymethylcellulose (CMC)) is reported as 0 of 4 and the survivor count [1] is reported as 0 of 4.
